One molecule from patent US20250163149A1, “ANTI-RAGE ANTIBODY” (Swansea University, priority 2022, published 2025) can be followed below.

No constants are given. Whether binding was seen depends on the method and setting. Some entries that bind do so weakly or less than the wild type.

Test [1] concerns the target synthetic peptide S155 of the RAGE V-domain (amino acids 39-65) (human). Briefly: ELISA, BSA-conjugated peptide S155 on the plate, two-fold dilutions of antibody, HRP anti-mouse, OD 450 nm. A general note: An ELISA detects its analyte on a solid surface through an enzyme-linked reagent.
Test [2] shares this target. As to the kind of experiment: SPR (Biacore T200), antibody amine-coupled to CM5, peptide as analyte.

B1: murine IG7 anti-RAGE monoclonal antibody (antibody, V domains shown)
VH: EVKLDETGGGLVQPGRPMKLSCIASGFTLSDYWMNWVRQSPEKGLEWVAQIRNRPYNFETLYSDSVKGRFIISRDDSKNSVYLQMDNLGPDDSGIYYCSSYRYGLAYWGQGTLVTVSA
VL: DILLTQSPAILSVSPGERVSISCRASQTIDKRIHWYQQRTNGSPRLLIKYMSESISGTPSRFSGSGSGTDFTLTINSVESEDIAVYYCQQTNYWPITFGSGTKLELK
notes: Same VH and VL as BG7; also called ID7
Regarding B1, the binding result in test [1] and in test [2] was “binds” throughout.
